Measured values from PubChem BioAssay AID2685 (National Center for Advancing Translational Sciences (NCATS), 2010).
Some of the results follow. Further columns of the screen follow, without active or inactive calls. The list favours compounds with an active or inconclusive main result. The note in brackets gives the kind of curve behind each potency; many fits are weak.

Test: qHTS Assay for Lipid Storage Modulators in Drosophila S3 Cells;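 as to cell number change: cells counted by Cell Tracker Red CMTPX staining in the red channel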
Details: BODIPY lipid droplet fluorescence, 18-24 h; for cell number change: measured here: cell count max response, cells fed with added oleic acid
How it was run: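 Drosophila S3 cells loaded with oleic acid (400 uM, as added) and compounds at several concentrations; lipid droplets imaged by 488-nm laser-scanning cytometry, 500–530 nm intensity and object ratio to cell channel. Percent activity normalized to 20 uM Triacsin C.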

[1] = measured here: cell number channel AC50, cells fed with added oleic acid
[2] = measured here: lipid fluorescence (Fed channel) AC50, cells fed with added oleic acid

Compound | cell number change | AC50 [1] | AC50 [2]
CC(NC(=O)Cc1ccc(F)cc1)c1ccc(F)cc1 (configuration not stated) | -12.1% | 130 nM [falling, full curve, poor fit] | 1030 nM [falling, full curve, poor fit]
CC(C)CNC(=O)c1cccc(NC(=O)Cc2ccc(Br)cc2)c1 | 16.1% |  | 16400 nM [rising, partial curve]
CCOC(=O)C(NC(=O)CC)C(O)c1cccc([N+](=O)[O-])c1 (configuration not stated) | -23.1% |  | 29100 nM [falling, single point]
COc1ccccc1C(=O)NCC(c1cccs1)N1CCc2ccccc21 (configuration not stated) |  | 2060 nM [rising, partial curve] | 
CCc1[nH]nc2c1C1(CCOC1C)C(C#N)=C(N)O2 (configuration not stated) | 11.8% |  | 
C#CCSc1nnc(-c2ccc(OC)cc2)o1 | 68.2% | 731 nM [rising, full curve] | 1030 nM [rising, full curve]
CCOc1cccc(OCCOCCN(C)Cc2ccccc2)c1 | -22.8% |  | 29100 nM [falling, single point]
O=C(CSc1nnnn1-c1ccc2c(c1)OCCO2)c1cccc2c1OCCO2 | 2.31% |  | 18400 nM [falling, single point]
COc1c(N2CCN(C(=S)NC3CC4CCC3C4)C(C)C2)c(F)cc2c(=O)c(C(=O)O)cn(C3CC3)c12 (configuration not stated) | -10.5% |  | 1160 nM [falling, full curve]
O=C(O)c1ccc(Cl)c(S(=O)(=O)Nc2ccccc2N2CCOCC2)c1 | 28.1% | 4610 nM [rising, full curve, poor fit] | 4110 nM [rising, full curve]
COc1ccc2c(c1)OC[C@H]1[C@H]2N2C(=O)CN(CCc3c[nH]c4ccccc34)C(=O)[C@@]2(C)[C@H]1c1ccccc1 | -9.64% |  | 29100 nM [falling, single point]
O=C1c2cccc3cccc(c23)C(=O)N1Cc1cccnc1 | 17.4% |  | 
CCC1(C)Cc2c(sc3nc4n(c(=O)c23)CCS4)CO1 (configuration not stated) | -2.03% | 651 nM [falling, single point] | 
CSCCC(NC(=O)c1ccc(Cl)cc1Cl)C(=O)NNC(=O)c1ccncc1 (configuration not stated) | -8.76% | 1460 nM [falling, partial curve] | 1640 nM [falling, partial curve]
COCCn1c(CN2CCN(C)CC2)nc2c1c(=O)n(C)c(=O)n2C | -15.4% |  | 
Cc1noc(C)c1S(=O)(=O)N1CCC(C(=O)N(C)Cc2ccccc2)CC1 | 14.4% |  | 16400 nM [falling, single point]

An excerpt of these results, tab-delimited.
Compound	cell number change	AC50 [1]	AC50 [2]
CCOC(=O)C(NC(=O)CC)C(O)c1cccc([N+](=O)[O-])c1 (configuration not stated)	-23.1%		29100 nM [falling, single point]
COc1ccccc1C(=O)NCC(c1cccs1)N1CCc2ccccc21 (configuration not stated)		2060 nM [rising, partial curve]	
CCc1[nH]nc2c1C1(CCOC1C)C(C#N)=C(N)O2 (configuration not stated)	11.8%		
